In the M2OR odorant receptor database:
The list shows a part of the results, in another mix than the full data. The calls were merged from several studies; some rest on single wells. Some of the results follow.

Assays:
Conditions in all cases: stereoisomer not certain
OR5B2 = system: T1, OR5B2
T1 sequence (whole entry): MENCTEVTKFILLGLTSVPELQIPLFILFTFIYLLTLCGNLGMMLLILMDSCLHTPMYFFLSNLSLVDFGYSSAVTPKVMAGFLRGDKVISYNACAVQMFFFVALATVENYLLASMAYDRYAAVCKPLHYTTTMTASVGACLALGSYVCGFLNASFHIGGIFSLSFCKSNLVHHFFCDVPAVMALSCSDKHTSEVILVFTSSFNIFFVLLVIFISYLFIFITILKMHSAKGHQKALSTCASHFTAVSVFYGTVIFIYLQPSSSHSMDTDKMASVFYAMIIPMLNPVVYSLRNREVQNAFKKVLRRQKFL
Summary of the method: (§1)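 Transient luciferase assays in mammalian cell lines were common, though methods varied by source. The values come from published papers and their supplementary material, with extra details from the original authors when needed. Responsive refers to a measured signal the original authors judged statistically different from baseline, and non-responsive (inactive) to the remainder.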

OR5B3 (Homo sapiens) = biological target: T2, OR5B3 (Homo sapiens) (UniProt Q8NH48)
T2 sequence (whole entry): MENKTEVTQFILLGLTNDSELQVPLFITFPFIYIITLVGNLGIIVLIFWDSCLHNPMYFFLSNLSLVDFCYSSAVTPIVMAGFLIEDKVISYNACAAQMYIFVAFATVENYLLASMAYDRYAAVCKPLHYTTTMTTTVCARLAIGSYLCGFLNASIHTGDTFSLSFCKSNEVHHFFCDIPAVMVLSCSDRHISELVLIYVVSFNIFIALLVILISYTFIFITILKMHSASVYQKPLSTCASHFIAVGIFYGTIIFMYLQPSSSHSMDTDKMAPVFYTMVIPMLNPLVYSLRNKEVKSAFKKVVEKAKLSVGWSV
Summary of the method: as §1

OR5BC = system: T3, OR5BC
T3 sequence (whole entry): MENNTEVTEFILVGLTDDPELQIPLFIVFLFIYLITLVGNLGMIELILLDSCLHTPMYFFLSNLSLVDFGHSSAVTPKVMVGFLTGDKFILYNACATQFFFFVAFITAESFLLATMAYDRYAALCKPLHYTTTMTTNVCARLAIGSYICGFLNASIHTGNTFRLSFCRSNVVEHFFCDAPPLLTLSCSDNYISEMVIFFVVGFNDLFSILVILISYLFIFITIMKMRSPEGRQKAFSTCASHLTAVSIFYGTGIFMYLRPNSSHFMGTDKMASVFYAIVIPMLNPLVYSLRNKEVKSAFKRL
Summary of the method: as §1

OR5BL = system: T4, OR5BL
T4 sequence (whole entry): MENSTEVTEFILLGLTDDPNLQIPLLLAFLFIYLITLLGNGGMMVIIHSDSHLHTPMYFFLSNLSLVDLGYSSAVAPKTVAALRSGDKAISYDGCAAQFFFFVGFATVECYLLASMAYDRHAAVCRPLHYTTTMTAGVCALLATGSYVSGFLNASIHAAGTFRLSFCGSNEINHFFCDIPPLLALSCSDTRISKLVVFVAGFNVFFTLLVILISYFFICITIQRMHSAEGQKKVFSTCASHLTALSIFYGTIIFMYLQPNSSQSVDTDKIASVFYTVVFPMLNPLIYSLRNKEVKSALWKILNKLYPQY
Summary of the method: as §1

OR5C1 (Homo sapiens) = biological target: T5, OR5C1 (Homo sapiens) (UniProt Q8NGR4)
T5 sequence (whole entry): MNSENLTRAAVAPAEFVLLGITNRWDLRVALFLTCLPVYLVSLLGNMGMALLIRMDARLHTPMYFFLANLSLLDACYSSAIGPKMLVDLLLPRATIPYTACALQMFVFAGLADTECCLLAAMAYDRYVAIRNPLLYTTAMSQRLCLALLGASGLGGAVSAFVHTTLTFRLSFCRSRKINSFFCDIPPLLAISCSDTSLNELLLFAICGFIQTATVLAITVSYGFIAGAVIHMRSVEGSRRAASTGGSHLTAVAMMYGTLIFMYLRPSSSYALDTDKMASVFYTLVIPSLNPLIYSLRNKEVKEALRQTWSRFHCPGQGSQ
Summary of the method: as §1

OR5DD = system: T6, OR5DD
T6 sequence (whole entry): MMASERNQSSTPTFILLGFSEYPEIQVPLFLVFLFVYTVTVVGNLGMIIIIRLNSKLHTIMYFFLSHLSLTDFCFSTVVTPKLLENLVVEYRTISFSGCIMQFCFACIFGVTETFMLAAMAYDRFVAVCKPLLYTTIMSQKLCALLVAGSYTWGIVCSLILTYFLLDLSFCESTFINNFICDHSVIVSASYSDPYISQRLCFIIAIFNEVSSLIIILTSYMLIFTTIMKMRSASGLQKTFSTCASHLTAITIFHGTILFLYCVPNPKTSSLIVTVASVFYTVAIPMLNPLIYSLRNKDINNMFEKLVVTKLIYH
Summary of the method: as §1

OR5DE = system: T7, OR5DE
T7 sequence (whole entry): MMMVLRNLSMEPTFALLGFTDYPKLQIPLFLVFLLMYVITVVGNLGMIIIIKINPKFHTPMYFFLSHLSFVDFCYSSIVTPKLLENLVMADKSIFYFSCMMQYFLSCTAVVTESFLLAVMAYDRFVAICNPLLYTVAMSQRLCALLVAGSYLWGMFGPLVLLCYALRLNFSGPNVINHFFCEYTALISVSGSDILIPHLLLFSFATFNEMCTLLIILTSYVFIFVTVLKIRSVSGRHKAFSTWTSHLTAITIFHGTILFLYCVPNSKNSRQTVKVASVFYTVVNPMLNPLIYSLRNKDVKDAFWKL
Summary of the method: as §1

OR5DG = system: T8, OR5DG
T8 sequence (whole entry): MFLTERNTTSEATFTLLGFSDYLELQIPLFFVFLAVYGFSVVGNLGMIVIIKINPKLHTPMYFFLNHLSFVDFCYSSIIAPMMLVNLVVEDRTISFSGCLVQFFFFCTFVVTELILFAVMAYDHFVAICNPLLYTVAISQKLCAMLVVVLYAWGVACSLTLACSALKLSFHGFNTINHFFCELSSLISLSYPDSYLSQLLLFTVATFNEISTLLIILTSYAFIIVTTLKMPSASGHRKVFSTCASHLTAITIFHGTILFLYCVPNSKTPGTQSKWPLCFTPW
Summary of the method: as §1

OR5DI = system: T9, OR5DI
T9 sequence (whole entry): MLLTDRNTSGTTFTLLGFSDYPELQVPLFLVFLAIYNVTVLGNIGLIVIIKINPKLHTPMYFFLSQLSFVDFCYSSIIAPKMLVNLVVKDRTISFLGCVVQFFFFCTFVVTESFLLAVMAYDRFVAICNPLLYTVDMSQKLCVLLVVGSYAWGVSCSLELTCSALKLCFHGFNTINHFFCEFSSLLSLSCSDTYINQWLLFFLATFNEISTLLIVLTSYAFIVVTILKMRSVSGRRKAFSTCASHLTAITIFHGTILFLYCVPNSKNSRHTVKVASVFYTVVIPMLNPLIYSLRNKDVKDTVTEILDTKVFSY
Summary of the method: as §1

OR5F1 = system: T10, OR5F1
T10 sequence (whole entry): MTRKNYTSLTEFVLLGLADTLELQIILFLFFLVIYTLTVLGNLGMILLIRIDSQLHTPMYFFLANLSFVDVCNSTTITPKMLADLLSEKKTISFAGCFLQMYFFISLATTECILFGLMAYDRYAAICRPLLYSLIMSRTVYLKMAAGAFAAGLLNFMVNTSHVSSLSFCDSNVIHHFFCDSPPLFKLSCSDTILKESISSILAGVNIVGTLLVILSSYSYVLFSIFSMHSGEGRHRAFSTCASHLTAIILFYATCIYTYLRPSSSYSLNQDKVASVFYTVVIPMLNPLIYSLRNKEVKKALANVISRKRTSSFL
Summary of the method: as §1

OR5H1 (Homo sapiens) = biological target: T11, OR5H1 (Homo sapiens) (UniProt A6NKK0)
T11 sequence (whole entry): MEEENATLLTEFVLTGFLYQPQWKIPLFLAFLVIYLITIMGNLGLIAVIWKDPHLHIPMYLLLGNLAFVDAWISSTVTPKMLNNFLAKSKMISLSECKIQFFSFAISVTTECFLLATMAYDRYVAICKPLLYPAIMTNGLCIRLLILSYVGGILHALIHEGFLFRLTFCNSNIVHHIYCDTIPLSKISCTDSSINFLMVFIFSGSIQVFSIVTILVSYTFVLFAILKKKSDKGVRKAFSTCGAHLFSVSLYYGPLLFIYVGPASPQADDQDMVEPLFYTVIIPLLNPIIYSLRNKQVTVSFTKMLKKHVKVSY
Summary of the method: as §1
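Further: active if original authors judged signal statistically different from baseline.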

SMILES	odorant receptor agonist call (OR5B2)	odorant receptor agonist call (OR5B3 (Homo sapiens))	odorant receptor agonist call (OR5BC)	odorant receptor agonist call (OR5BL)	odorant receptor agonist call (OR5C1 (Homo sapiens))	odorant receptor agonist call (OR5DD)	odorant receptor agonist call (OR5DE)	odorant receptor agonist call (OR5DG)	odorant receptor agonist call (OR5DI)	odorant receptor agonist call (OR5F1)	odorant receptor agonist call (OR5H1 (Homo sapiens))
CC=Cc1ccc(O)c(OC)c1	inactive	active	active	inactive	inactive	inactive	inactive	inactive	inactive	inactive	inactive
CCCCO	inactive	inactive	inactive	inactive	inactive	inactive	inactive	inactive	inactive	inactive	inactive
C=C(C)C1CCC2=CC(=O)CC(C)C2(C)C1 (configuration not stated)			inactive								
CCCCCOC(C)=O	inactive	inactive	inactive	inactive	inactive	inactive		inactive	inactive	inactive	inactive
CCCCCCCC=O	inactive	inactive	inactive	inactive	inactive	inactive	inactive	inactive	inactive	inactive	inactive
CCCCCCOC(=O)CCC	inactive	inactive	inactive	inactive	inactive	inactive	inactive	inactive	inactive	inactive	inactive
CCCCCCCCCCC=O	inactive	inactive	inactive	inactive	inactive	inactive	inactive	inactive	inactive	inactive	inactive
COc1cc(C=O)ccc1O	inactive	inactive	inactive	inactive	inactive	inactive	inactive	inactive	inactive	inactive	inactive
CC(C)(C)c1ccc(CCC=O)cc1	inactive	inactive	inactive	inactive	inactive	inactive	inactive	inactive	inactive	inactive	inactive
CC12CCC(C1)C(C)(C)C2=O (configuration not stated)	inactive	inactive	inactive	inactive	inactive	inactive	inactive	inactive	inactive	inactive	inactive
CC(C)CC(=O)O	inactive	inactive	inactive	inactive	inactive	inactive	inactive	inactive	inactive	inactive	inactive
O=C1CCCCC1	inactive	inactive		inactive	inactive	inactive	inactive	inactive	inactive	inactive	inactive
CC(C)(O)CCCC1=CCC(C=O)CC1 (configuration not stated)			inactive								
CC(=O)C(C)=O	inactive	inactive	inactive	inactive	inactive	inactive	inactive	inactive	inactive	inactive	inactive

Record cards (already shown). Order of values: odorant receptor agonist call (OR5B2) | odorant receptor agonist call (OR5B3 (Homo sapiens)) | odorant receptor agonist call (OR5BC) | odorant receptor agonist call (OR5BL) | odorant receptor agonist call (OR5C1 (Homo sapiens)) | odorant receptor agonist call (OR5DD) | odorant receptor agonist call (OR5DE) | odorant receptor agonist call (OR5DG) | odorant receptor agonist call (OR5DI) | odorant receptor agonist call (OR5F1) | odorant receptor agonist call (OR5H1 (Homo sapiens))
`CC(C)CC(=O)O` reads inactive | inactive | inactive | inactive | inactive | inactive | inactive | inactive | inactive | inactive | inactive
`COc1cc(C=O)ccc1O` reads inactive | inactive | inactive | inactive | inactive | inactive | inactive | inactive | inactive | inactive | inactive
